Measured values taken from article PMC3206076, “Structural, Stability, Dynamic and Binding Properties of the ALS-Causing T46I Mutant of the hVAPB MSP Domain as Revealed by NMR and MD Simulations” (PLoS ONE, 2011).

The chains behind the UniProt entries cited, without tags or fusion partners. Where a name states a change or a piece, a line headed by the entry shows the natural chain unless it says otherwise.
UniProt P54764: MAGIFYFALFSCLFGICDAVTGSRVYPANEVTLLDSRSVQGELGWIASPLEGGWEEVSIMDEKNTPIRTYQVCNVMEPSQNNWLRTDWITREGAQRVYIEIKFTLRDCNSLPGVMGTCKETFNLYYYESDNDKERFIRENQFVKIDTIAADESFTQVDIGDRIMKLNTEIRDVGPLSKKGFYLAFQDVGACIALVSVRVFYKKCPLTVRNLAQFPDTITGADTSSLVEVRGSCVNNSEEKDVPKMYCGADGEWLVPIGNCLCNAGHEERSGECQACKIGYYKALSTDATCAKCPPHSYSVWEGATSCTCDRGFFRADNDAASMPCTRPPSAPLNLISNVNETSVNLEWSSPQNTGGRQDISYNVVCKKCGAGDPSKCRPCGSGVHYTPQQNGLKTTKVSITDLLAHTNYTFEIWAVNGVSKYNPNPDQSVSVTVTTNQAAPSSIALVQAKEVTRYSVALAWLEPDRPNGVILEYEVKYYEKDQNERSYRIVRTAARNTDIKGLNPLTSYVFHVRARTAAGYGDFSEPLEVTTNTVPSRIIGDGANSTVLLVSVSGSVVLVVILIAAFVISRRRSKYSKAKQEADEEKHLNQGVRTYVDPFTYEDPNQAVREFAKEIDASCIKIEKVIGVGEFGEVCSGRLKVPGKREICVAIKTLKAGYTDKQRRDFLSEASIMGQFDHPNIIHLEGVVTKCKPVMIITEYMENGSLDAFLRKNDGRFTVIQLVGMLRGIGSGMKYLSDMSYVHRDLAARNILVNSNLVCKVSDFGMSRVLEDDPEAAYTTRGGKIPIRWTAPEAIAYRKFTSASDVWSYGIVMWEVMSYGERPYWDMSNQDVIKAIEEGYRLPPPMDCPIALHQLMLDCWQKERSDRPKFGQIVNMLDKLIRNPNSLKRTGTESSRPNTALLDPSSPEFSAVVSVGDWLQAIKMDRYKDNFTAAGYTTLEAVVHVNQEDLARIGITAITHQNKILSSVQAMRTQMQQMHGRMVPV

Biological target: EphA4 ligand-binding domain (181 residues) (UniProt P54764)
Test: NMR titration; 1H-15N HSQC of 15N-labeled EphA4 ligand-binding domain (100 µM) without or with unlabeled WT- or T46I-MSP (ratios 1:0.5 to 1:8) or Nir2 peptide (up to 1:10); 25°C; both purified

B1: Nir2 peptide (EEEFFDAHE) (peptide)
peptide: EEEFFDAHE
notes: FFAT-motif peptide of the Nir2 protein; also called the peptide; source: synthetic peptide, bought: Genesis Biotech Inc., further purified by HPLC (reverse-phase C18)
  binding: no binding (tested: ratio of 1∶10 (EphA4/Nir2))

These are yes or no findings as the source states them, for the method shown.
